Reference: paper PMC7615239
No constants are given. Whether binding was seen depends on the method and setting. Binding can be weak; no strength is given. Tags and fused reporters may be left off the sequences shown. For part of these data: Binding seen in cells or lysates may run through a third protein.

Chains of the proteins cited; added tags and fusions are not shown. Lines headed by an entry give the natural chain unless they say otherwise; changes in a name come on top.
UniProt Q9LHF5: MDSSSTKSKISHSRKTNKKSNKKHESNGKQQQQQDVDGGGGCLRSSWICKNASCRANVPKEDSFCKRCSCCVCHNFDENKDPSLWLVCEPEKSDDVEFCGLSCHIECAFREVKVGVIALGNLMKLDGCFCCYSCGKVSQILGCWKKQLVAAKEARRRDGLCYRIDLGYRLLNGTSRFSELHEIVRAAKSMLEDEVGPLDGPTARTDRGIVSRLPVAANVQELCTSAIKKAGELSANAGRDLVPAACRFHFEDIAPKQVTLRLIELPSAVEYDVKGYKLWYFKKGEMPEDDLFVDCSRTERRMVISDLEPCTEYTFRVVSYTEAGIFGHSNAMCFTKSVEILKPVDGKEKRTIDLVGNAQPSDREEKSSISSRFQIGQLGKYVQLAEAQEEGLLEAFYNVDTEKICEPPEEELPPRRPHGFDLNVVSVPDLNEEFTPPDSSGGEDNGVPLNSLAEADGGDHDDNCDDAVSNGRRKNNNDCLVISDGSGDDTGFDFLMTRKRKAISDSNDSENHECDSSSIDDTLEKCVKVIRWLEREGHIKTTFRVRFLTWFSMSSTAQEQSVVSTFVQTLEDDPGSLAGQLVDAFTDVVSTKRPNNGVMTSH

B1: HA-tagged VRN2(1-397) (domain or fragment, UniProt Q8W5B1 1-397)
chain: MCRQNCRAKSSPEEVISTDENLLIYCKPVRLYNIFHLRSLGNPSFLPRCLNYKIGAKRKRKSRSTGMVVFNYKDCNNTLQRTEVREDCSCPFCSMLCGSFKGLQFHLNSSHDLFEFEFKLLEEYQTVNVSVKLNSFIFEEEGSDDDKFEPFSLCSKPRKRRQRGGRNNTRRLKVCFLPLDSPSLANGTENGIALLNDGNRGLGYPEATELAGQFEMTSNIPPAIAHSSLDAGAKVILTTEAVVPATKTRKLSAERSEARSHLLLQKRQFYHSHRVQPMALEQVMSDRDSEDEVDDDVADFEDRQMLDDFVDVNKDEKQFMHLWNSFVRKQRVIADGHISWACEVFSRFYEKELHCYSSLFWCWRLFLIKLWNHGLVDSATINNCNTILENCRNTSVT
B2: HA-tagged SWN(29-831) (domain or fragment, UniProt Q9ZSM8 29-831)
chain: LEGLENRLSELKRKIQGERVRSIKEKFEANRKKVDAHVSPFSSAASSRATAEDNGNSNMLSSRMRMPLCKLNGFSHGVGDRDYVPTKDVISASVKLPIAERIPPYTTWIFLDRNQRMAEDQSVVGRRQIYYEQHGGETLICSDSEEEPEPEEEKREFSEGEDSIIWLIGQEYGMGEEVQDALCQLLSVDASDILERYNELKLKDKQNTEEFSNSGFKLGISLEKGLGAALDSFDNLFCRRCLVFDCRLHGCSQPLISASEKQPYWSDYEGDRKPCSKHCYLQLKAVREVPETCSNFASKAEEKASEEECSKAVSSDVPHAAASGVSLQVEKTDIGIKNVDSSSGVEQEHGIRGKREVPILKDSNDLPNLSNKKQKTAASDTKMSFVNSVPSLDQALDSTKGDQGGTTDNKVNRDSEADAKEVGEPIPDNSVHDGGSSICQPHHGSGNGAIIIAEMSETSRPSTEWNPIEKDLYLKGVEIFGRNSCLIARNLLSGLKTCLDVSNYMRENEVSVFRRSSTPNLLLDDGRTDPGNDNDEVPPRTRLFRRKGKTRKLKYSTKSAGHPSVWKRIAGGKNQSCKQYTPCGCLSMCGKDCPCLTNETCCEKYCGCSKSCKNRFRGCHCAKSQCRSRQCPCFAAGRECDPDVCRNCWVSCGDGSLGEAPRRGEGQCGNMRLLLRQQQRILLGKSDVAGWGAFLKNSVSKNEYLGEYTGELISHHEADKRGKIYDRANSSFLFDLNDQYVLDAQRKGDKLKFANHSAKPNCYAKVMFVAGDHRVGIFANERIEASEELFYDYRYGPDQAPVW
B3: C-terminal HA-tagged MSI1(1-412) (domain or fragment, UniProt O22467 1-412)
chain: MGKDEEEMRGEIEERLINEEYKIWKKNTPFLYDLVITHALEWPSLTVEWLPDREEPSGKDYSVQKMILGTHTSESEPNYLMLAQVQLPLDDTESEARQYDDDRSEFGGFGCATGKVQIIQQINHDGEVNRARYMPQNPFIIATKTVNAEVYVFDYSKHPSKPPLDGACNPDLKLRGHSSEGYGLSWSKFKQGHLLSGSDDAQICLWDINATPKNKSLDAQQIFKAHEGVVEDVAWHLRHEYLFGSVGDDQYLLIWDLRSPSASKPVQSVVAHSMEVNCLAFNPFNEWVVATGSTDKTVKLFDLRKLSTALHTFDSHKEEVFQVGWNPKNETILASCCLGRRLMVWDLSRIDEEQTVEDAEDGPPELLFIHGGHTSKISDFSWNPCEDWVISSVAEDNILQIWQMAENIYHDE
B4: HA-tagged VRN2 (protein, UniProt Q8W5B1 1-440)
chain: MCRQNCRAKSSPEEVISTDENLLIYCKPVRLYNIFHLRSLGNPSFLPRCLNYKIGAKRKRKSRSTGMVVFNYKDCNNTLQRTEVREDCSCPFCSMLCGSFKGLQFHLNSSHDLFEFEFKLLEEYQTVNVSVKLNSFIFEEEGSDDDKFEPFSLCSKPRKRRQRGGRNNTRRLKVCFLPLDSPSLANGTENGIALLNDGNRGLGYPEATELAGQFEMTSNIPPAIAHSSLDAGAKVILTTEAVVPATKTRKLSAERSEARSHLLLQKRQFYHSHRVQPMALEQVMSDRDSEDEVDDDVADFEDRQMLDDFVDVNKDEKQFMHLWNSFVRKQRVIADGHISWACEVFSRFYEKELHCYSSLFWCWRLFLIKLWNHGLVDSATINNCNTILENCRNTSVTNNNNNSVDHPSDSNTNNNNIVDHPNDIKNKNNVDNKDNNSRDK
B5: HA-tagged SWN (protein, UniProt Q9ZSM8 1-856)
chain: MVTDDSNSSGRIKSHVDDDDDGEEEEDRLEGLENRLSELKRKIQGERVRSIKEKFEANRKKVDAHVSPFSSAASSRATAEDNGNSNMLSSRMRMPLCKLNGFSHGVGDRDYVPTKDVISASVKLPIAERIPPYTTWIFLDRNQRMAEDQSVVGRRQIYYEQHGGETLICSDSEEEPEPEEEKREFSEGEDSIIWLIGQEYGMGEEVQDALCQLLSVDASDILERYNELKLKDKQNTEEFSNSGFKLGISLEKGLGAALDSFDNLFCRRCLVFDCRLHGCSQPLISASEKQPYWSDYEGDRKPCSKHCYLQLKAVREVPETCSNFASKAEEKASEEECSKAVSSDVPHAAASGVSLQVEKTDIGIKNVDSSSGVEQEHGIRGKREVPILKDSNDLPNLSNKKQKTAASDTKMSFVNSVPSLDQALDSTKGDQGGTTDNKVNRDSEADAKEVGEPIPDNSVHDGGSSICQPHHGSGNGAIIIAEMSETSRPSTEWNPIEKDLYLKGVEIFGRNSCLIARNLLSGLKTCLDVSNYMRENEVSVFRRSSTPNLLLDDGRTDPGNDNDEVPPRTRLFRRKGKTRKLKYSTKSAGHPSVWKRIAGGKNQSCKQYTPCGCLSMCGKDCPCLTNETCCEKYCGCSKSCKNRFRGCHCAKSQCRSRQCPCFAAGRECDPDVCRNCWVSCGDGSLGEAPRRGEGQCGNMRLLLRQQQRILLGKSDVAGWGAFLKNSVSKNEYLGEYTGELISHHEADKRGKIYDRANSSFLFDLNDQYVLDAQRKGDKLKFANHSAKPNCYAKVMFVAGDHRVGIFANERIEASEELFYDYRYGPDQAPVWARKPEGSKKDDSAITHRRARKHQSH
B6: HA-tagged FIE (protein, UniProt Q9LT47 1-369)
chain: MSKITLGNESIVGSLTPSNKKSYKVTNRIQEGKKPLYAVVFNFLDARFFDVFVTAGGNRITLYNCLGDGAISALQSYADEDKEESFYTVSWACGVNGNPYVAAGGVKGIIRVIDVNSETIHKSLVGHGDSVNEIRTQPLKPQLVITASKDESVRLWNVETGICILIFAGAGGHRYEVLSVDFHPSDIYRFASCGMDTTIKIWSMKEFWTYVEKSFTWTDDPSKFPTKFVQFPVFTASIHTNYVDCNRWFGDFILSKSVDNEILLWEPQLKENSPGEGASDVLLRYPVPMCDIWFIKFSCDLHLSSVAIGNQEGKVYVWDLKSCPPVLITKLSHNQSKSVIRQTAMSVDGSTILACCEDGTIWRWDVITK
B7: HA-tagged FIE(1-360) (domain or fragment, UniProt Q9LT47 1-360)
chain: MSKITLGNESIVGSLTPSNKKSYKVTNRIQEGKKPLYAVVFNFLDARFFDVFVTAGGNRITLYNCLGDGAISALQSYADEDKEESFYTVSWACGVNGNPYVAAGGVKGIIRVIDVNSETIHKSLVGHGDSVNEIRTQPLKPQLVITASKDESVRLWNVETGICILIFAGAGGHRYEVLSVDFHPSDIYRFASCGMDTTIKIWSMKEFWTYVEKSFTWTDDPSKFPTKFVQFPVFTASIHTNYVDCNRWFGDFILSKSVDNEILLWEPQLKENSPGEGASDVLLRYPVPMCDIWFIKFSCDLHLSSVAIGNQEGKVYVWDLKSCPPVLITKLSHNQSKSVIRQTAMSVDGSTILACCEDGT

molecular target: strep tag II-tagged VRN5ΔVEL (Arabidopsis thaliana) (UniProt Q9LHF5); test: cross-linking; XL-MS of the purified VRN5ΔVEL-PRC2 complex; 1-20 mM EDC, 60 min, room temperature; trypsin digest, LC-MS/MS, MeroX; both purified

Row | Binder | binding
1 | B1 | binds
2 | B2 | binds
3 | B3 | binds

molecular target: GFP-VRN5 ΔFN3 (Arabidopsis thaliana) (UniProt Q9LHF5); test: co-IP; GFP-tagged VEL protein (wt, mutant or chimera) coexpressed with all four HA-tagged PRC2 subunits (VRN2, SWN, FIE, MSI1) in HEK293T; GFP-trap 90 min at 4°C; lysis buffer 20 mM Tris pH 7.4, 200 mM NaCl, 10% glycerol, 0.2% Triton X-100; anti-HA blot

Row | Binder | binding
4 | B4 | binds
5 | B5 | binds
6 | B6 | binds

molecular target: GFP-VRN5 ΔN (Arabidopsis thaliana) (UniProt Q9LHF5); test: as above

Row | Binder | binding
7 | B4 | binds
8 | B5 | binds

molecular target: GFP-VRN5 ΔPHDs (Arabidopsis thaliana) (UniProt Q9LHF5); test: as above

Row | Binder | binding
9 | B4 | binds weakly
10 | B5 | binds weakly
11 | B6 | binds weakly

molecular target: GFP-VRN5 ΔVEL (Arabidopsis thaliana) (UniProt Q9LHF5); test: as above

Row | Binder | binding
12 | B4 | binds
13 | B5 | binds
14 | B6 | binds

molecular target: strep tag II-tagged VRN5ΔVEL (Arabidopsis thaliana) (UniProt Q9LHF5); test: co-purification of coexpressed proteins (Strep-tactin affinity, then size exclusion chromatography); five genes coexpressed in Sf9; bait N-terminal strep tag II VRN5ΔVEL on Strep-tactin superflow resin, 25 mM HEPES pH 8, 250 mM NaCl, eluted with 5 mM desthiobiotin, Superose 6 increase

Row | Binder | binding
15 | B1 | binds
16 | B2 | binds
17 | B7 | binds
18 | B3 | binds
